Measurements: patent publication US20210154267A1
No constants are given. Whether binding was seen depends on the method and setting. In cells and extracts the contact can be indirect. Some entries that bind do so weakly or less than the wild type. Sequences can lack the tags named with a protein.

What was measured:
[1] = molecular target: T1, NEFL fused to a Myc-tag at the C-terminus (NEFL-Myc) (UniProt P07196); assay: co-immunoprecipitation with antibody against GFP or Myc, IgG as negative control (FIG. 3 legend)
T1 sequence (looked up): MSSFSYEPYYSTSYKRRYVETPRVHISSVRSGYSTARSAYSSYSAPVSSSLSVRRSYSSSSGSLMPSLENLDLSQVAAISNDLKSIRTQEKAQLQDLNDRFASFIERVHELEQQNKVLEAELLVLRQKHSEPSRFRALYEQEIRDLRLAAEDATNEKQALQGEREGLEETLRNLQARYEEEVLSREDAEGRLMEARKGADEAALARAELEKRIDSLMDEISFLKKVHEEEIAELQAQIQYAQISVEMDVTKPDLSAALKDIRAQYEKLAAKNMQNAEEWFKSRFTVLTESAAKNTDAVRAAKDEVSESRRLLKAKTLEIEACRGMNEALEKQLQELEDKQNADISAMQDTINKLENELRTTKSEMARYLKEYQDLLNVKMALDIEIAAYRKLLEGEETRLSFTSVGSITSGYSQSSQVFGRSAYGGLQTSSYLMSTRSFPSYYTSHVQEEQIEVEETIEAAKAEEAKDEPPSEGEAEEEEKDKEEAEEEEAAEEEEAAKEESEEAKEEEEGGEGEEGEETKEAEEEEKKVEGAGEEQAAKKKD

[2] = molecular target: T1, NEFL fused to a Myc-tag at the C-terminus (NEFL-Myc); assay: co-immunoprecipitation from transfected Neuro-2a lysates (anti-GFP pull-down, western blot; reverse NEFL-Myc pull-down also confirmed the interaction)

B1: GFP-tagged wild type NEFH protein (GFP-WT-NEFH) (protein, human, UniProt P12036 1-1020, looked up, not shown: large carriers)
chain: MMSFGGADALLGAPFAPLHGGGSLHYALARKGGAGGTRSAAGSSSGFHSWTRTSVSSVSASPSRFRGAGAASSTDSLDTLSNGPEGCMVAVATSRSEKEQLQALNDRFAGYIDKVRQLEAHNRSLEGEAAALRQQQAGRSAMGELYEREVREMRGAVLRLGAARGQLRLEQEHLLEDIAHVRQRLDDEARQREEAEAAARALARFAQEAEAARVDLQKKAQALQEECGYLRRHHQEEVGELLGQIQGSGAAQAQMQAETRDALKCDVTSALREIRAQLEGHAVQSTLQSEEWFRVRLDRLSEAAKVNTDAMRSAQEEITEYRRQLQARTTELEALKSTKDSLERQRSELEDRHQADIASYQEAIQQLDAELRNTKWEMAAQLREYQDLLNVKMALDIEIAAYRKLLEGEECRIGFGPIPFSLPEGLPKIPSVSTHIKVKSEEKIKVVEKSEKETVIVEEQTEETQVTEEVTEEEEKEAKEEEGKEEEGGEEEEAEGGEEETKSPPAEEAASPEKEAKSPVKEEAKSPAEAKSPEKEEAKSPAEVKSPEKAKSPAKEEAKSPPEAKSPEKEEAKSPAEVKSPEKAKSPAKEEAKSPAEAKSPEKAKSPVKEEAKSPAEAKSPVKEEAKSPAEVKSPEKAKSPTKEEAKSPEKAKSPEKEEAKSPEKAKSPVKAEAKSPEKAKSPVKAEAKSPEKAKSPVKEEAKSPEKAKSPVKEEAKSPEKAKSPVKEEAKTPEKAKSPVKEEAKSPEKAKSPEKAKTLDVKSPEAKTPAKEEARSPADKFPEKAKSPVKEEVKSPEKAKSPLKEDAKAPEKEIPKKEEVKSPVKEEEKPQEVKVKEPPKKAEEEKAPATPKTEEKKDSKKEEAPKKEAPKPKVEEKKEPAVEKPKESKVEAKKEEAEDKKKVPTPEKEAPAKVEVKEDAKPKEKTEVAKKEPDDAKAKEPSKPAEKKEAAPEKKDTKEEKAKKPEEKPKTEAKAKEDDKTLSKEPSKPKAEKAEKSSSTDQKDSKPPEKATEDKAAKGK
Q: What does the source list for B1?
A: binding [1]: binds; binding [2]: binds
